Measurements: PubChem BioAssay AID2685 (National Center for Advancing Translational Sciences (NCATS), 2010)
The campaign covered roughly 320,000 compounds. About 2,100 (0.66%) were called active. The inconclusive results got no clear call from the source; some entries with a clear call stand among them for comparison. Calls follow the shape of the dose curve; as a rule, active = well fitted inhibition curve with a large enough effect in the signal ratio, with a control signal flat (not every such curve was filed as active); inconclusive = small, poorly fitted or top-dose-only effect, or effect the other way, or a change in a side signal; inactive = flat fitted curve, though single readings scatter; the % refers to the signal ratio. Where the call is inconclusive, the potency comes from a doubtful curve fit.

assay: qHTS Assay for Lipid Storage Modulators in Drosophila S3 Cells; conditions: BODIPY lipid droplet fluorescence, 18-24 h, cells fed with added oleic acid; lipid storage change, negative = inhibition: at 46.1 µM (top of the series) unless noted
How it was run: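 Drosophila S3 cells got compounds at several concentrations plus oleic acid (400 uM solution). Laser-scanning cytometry with 488 nm excitation read lipid droplets at 500-530 nm and cells at 575-640 nm. Percent activity was relative to 20 uM Triacsin C.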
% is scaled to controls: 0 for no effect and ±100 for the full control effect; potency is read from the fitted curve at half-maximal effect.

| SMILES | Potency | lipid storage change, negative = inhibition |
| --- | --- | --- |
| CN(CC(=O)Nc1cc(S(=O)(=O)N2CCCCCC2)ccc1Cl)Cc1ccc2c(c1)OCO2 | inconclusive: 0.731 µM [activator, partial curve] |  |
| Cn1c(CNC(=O)CNC(=O)c2ccc(C(C)(C)C)cc2)cc(=O)n(C)c1=O |  | inconclusive: -8.91% |
| CN1CCN(C(=O)CC23CC4CC(CC(C4)C2)C3)CC1 |  | inconclusive: -11.6% |
| CC1=C(C(=O)Nc2ccc(C)cc2C)C(c2cccc([N+](=O)[O-])c2)n2nc(C(=O)OC(C)C)nc2N1 (stereo not given) | inconclusive: 6.51 µM [falling, single point] |  |
| COc1ccc2c(c1)c1nc3n(c(=O)c1n2CC(=O)Nc1ccccc1)CCS3 |  | inconclusive: -6.65% |
| CC(C)N(C)Cc1nnnn1CC(=O)NCc1cc(F)cc(C(F)(F)F)c1 |  | inactive |
| N#C/C(=C\c1ccco1)c1nc2ccccc2s1 | inconclusive: 29.1 µM [falling, single point] |  |
| CC(C)c1nc(SCC(=O)c2ccc(F)cc2)c2ccccc2n1 |  | inconclusive: 0.96% |
| COc1cc(C)ccc1OCCOCCOc1ccc(C)cc1[N+](=O)[O-] |  | inconclusive: -9.02% |
| CCCn1c(CC)nc([N+](=O)[O-])c1S(=O)(=O)c1ccccc1 | inconclusive: 16.4 µM [cytotoxic, partial curve] |  |
| CCc1nnc(NC(=O)c2nc3nc(C)cc(C)n3n2)s1 | inconclusive: 29.1 µM [falling, single point] |  |
| O=C(O)Cc1ccc2[nH]c3ccc(CC(=O)O)cc3c2c1 |  | inconclusive: 11.2% |
| COc1ccccc1-c1cc(C(=O)N2CCc3ccccc3C2)c2ccccc2n1 |  | inactive |
| Cc1ccc(NC(=O)CN2C(=O)COc3ccc(S(=O)(=O)N4CCOCC4)cc32)cc1F | inconclusive: 9.2 µM [activator, partial curve] |  |
| Cc1ccc2nc3c(cc(C(=O)NCc4ccco4)c(=N)n3Cc3ccco3)c(=O)n2c1 |  | inactive |
| COc1ccc(/C=N/NC(=O)CCn2c3ccccc3c3ccccc32)cc1O |  | inconclusive: 6.39% |
| O=C(NCCCN1CCOCC1)C1CCC(=O)N1C1CCCCC1 (stereo not given) |  | inconclusive: -2.3% |
| COc1ccccc1NC(NC(=O)c1ccco1)C(=O)c1ccccc1 (stereo not given) |  | inconclusive: 11% |
| COc1ccc(NC(=O)C2CCN(S(=O)(=O)c3ccc(C)cc3)CC2)cc1OC |  | inconclusive: -30.6% |
| COc1cccc(N2CC(NC(=O)c3cccc4ccccc34)CC2=O)c1 (stereo not given) |  | inconclusive: 52.6% |
| Cc1ccc(C2SCC(C(=O)O)N2C(=O)c2ccc(F)cc2)cc1 (stereo not given) |  | inconclusive: 2.62% |
| Cc1ccc2cc(C)c3nnc(SCC(=O)N4CCN(C(=O)c5ccco5)CC4)n3c2c1 |  | inconclusive: 202% |
| Cc1cc(NC(=O)CN2C(=O)NC(CC(C)C)C2=O)ccc1Br (stereo not given) | inconclusive: 0.082 µM [falling, full curve, poor fit] |  |
| Cc1ccc(C(=O)NCc2cccnc2)cc1S(=O)(=O)N1CCCCCC1 |  | inconclusive: -20.7% |
| CCn1c(SCC(=O)c2cc(OC)ccc2OC)nnc1C(C)C |  | inconclusive: 8.18% |

Exported as tab-separated lines: entries from further up
SMILES	Potency	lipid storage change, negative = inhibition
Cn1c(CNC(=O)CNC(=O)c2ccc(C(C)(C)C)cc2)cc(=O)n(C)c1=O		inconclusive: -8.91%
CN1CCN(C(=O)CC23CC4CC(CC(C4)C2)C3)CC1		inconclusive: -11.6%

The results go on.

| SMILES | Potency | lipid storage change, negative = inhibition |
| --- | --- | --- |
| O=C(CNC(=O)C1CCCCC1)NC1=NCCS1 | inconclusive: 3.26 µM [activator, single point] |  |
| CN(C)Cc1c(C(=O)N/N=C/c2cccs2)nnn1-c1nonc1N |  | inconclusive: 68.9% |
| O=C1N=C(N2CCN(c3cccc4ccccc34)CC2)S/C1=C/c1cccs1 |  | inactive |
| CCOC(=O)c1cc(CC)sc1/N=C/C1C(=O)CCCC1=O |  | inconclusive: 21% |
| COc1ccccc1Nc1nc(N)nc(CN2CCC(C)CC2)n1 |  | inconclusive: 1.37% |
| CC(=O)NC(CC(=O)NCC(=O)Nc1ccc(F)c(F)c1)c1ccccc1 (stereo not given) | inconclusive: 0.116 µM [falling, full curve, poor fit] |  |
| O=C(CCc1ccc(S(=O)(=O)N2CCOCC2)cc1)N/N=C/c1cccc(O)c1 |  | inconclusive: 35.7% [activator] |
| CC(/C=C/c1ccc(N(C)C)cc1)=N\N=C1\NC(=O)CC(C(=O)Nc2ccccc2)S1 (stereo not given) | inconclusive: 20.6 µM [falling, single point] |  |
| N/C(=N\OC(=O)COc1ccc(Br)cc1Cl)c1ccccn1 |  | inconclusive: 36.3% |
| Cc1ccccc1NS(=O)(=O)c1ccc(C(=O)N2CCN(S(=O)(=O)c3ccccc3)CC2)cc1 | active: 3.26 µM |  |
| COc1cc([N+](=O)[O-])cc(/C=N/NC(=O)c2cc(C)nc3ccccc23)c1O |  | inconclusive: 48.4% |
| Cn1ncc(Br)c1C(=O)NC1CCCCCCC1 |  | inconclusive: 11.9% |
| Cc1noc(C)c1C(=O)OCC(=O)Nc1ccccc1C(=O)NC(C)c1ccccc1 (stereo not given) |  | inconclusive: 8.15% |
| O=[N+]([O-])c1ccc(N2CCCCC2)nc1N1CCCCC1 |  | inconclusive: 12.2% |
| Cc1ccccc1C(=O)NC1CCN(CC(=O)NCc2ccccc2)CC1 |  | inactive |
| COc1cc(C(=O)NCc2nnc(SCC(=O)NCc3ccccc3)o2)cc(OC)c1OC | inconclusive: 0.92 µM [falling, full curve, poor fit] |  |
| O=S(=O)(Nc1cccc(CO)c1)c1cccs1 | inconclusive: 0.082 µM [falling, full curve, poor fit] |  |
| O=S(=O)(c1ccc(Cl)cc1)N1CCN(Cc2ccc(O)c3ncccc23)CC1 |  | inconclusive: -1.07% |
| Cc1ccc(C)c(NC(=O)CN(C)C(=O)Cc2ccccc2)c1 |  | inactive |
| O=C(NNC(=O)C1COc2ccccc2O1)c1cccc([N+](=O)[O-])c1 (stereo not given) |  | inconclusive: 5.6% |
| O=C(Cn1nnc(-c2cccc(C(F)(F)F)c2)n1)N1CCCCCC1 |  | inconclusive: 63.6% |
| Cc1onc(-c2ccccc2Cl)c1C(=O)Nc1ccc(-n2nncc2-c2ccco2)cc1 |  | inconclusive: 27.6% |
| CC(C)CC(=O)Nc1cccc(-c2nc3ccccc3[nH]2)c1 |  | inconclusive: -28.9% |
| O=C(/C=C/c1ccccc1)N1CCN(CCN2C(=O)c3cccc4cccc(c34)C2=O)CC1 |  | inconclusive: 29.4% |
| CCCCCCn1c(N2CCC(C(N)=O)CC2)nc2c1c(=O)[nH]c(=O)n2C | inconclusive: 18.4 µM [activator, single point] |  |
